For this assay, the target named is T1, TRIM54 (Flag-tagged, expressed from pCDH-CMV-MCS-3Flag-EF1-CopGFP-T2A-Puro) (human) (UniProt Q9BYV2).
T1 sequence: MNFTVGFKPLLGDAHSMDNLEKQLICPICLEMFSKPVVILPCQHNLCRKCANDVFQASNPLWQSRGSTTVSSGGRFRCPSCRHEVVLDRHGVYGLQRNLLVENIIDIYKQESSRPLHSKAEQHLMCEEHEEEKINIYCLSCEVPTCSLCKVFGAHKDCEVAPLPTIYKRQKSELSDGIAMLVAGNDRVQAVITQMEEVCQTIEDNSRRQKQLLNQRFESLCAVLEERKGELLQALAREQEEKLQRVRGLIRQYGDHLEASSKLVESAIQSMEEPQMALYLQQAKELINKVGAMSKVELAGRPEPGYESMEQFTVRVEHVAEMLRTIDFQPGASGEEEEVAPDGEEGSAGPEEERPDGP
The assay can be described thus: affinity purification with mass spectrometry; lysates from 3 × 10^7 transfected cells incubated with myc- or Flag-conjugated agarose beads overnight at 4°C; washed six times; eluted with 1 M glycine pH 3.0; specific bands cut from a Coomassie-stained SDS gel; LC-MS/MS.

Amino acid sequences for entries named in this document (tags omitted).
UniProt O15169: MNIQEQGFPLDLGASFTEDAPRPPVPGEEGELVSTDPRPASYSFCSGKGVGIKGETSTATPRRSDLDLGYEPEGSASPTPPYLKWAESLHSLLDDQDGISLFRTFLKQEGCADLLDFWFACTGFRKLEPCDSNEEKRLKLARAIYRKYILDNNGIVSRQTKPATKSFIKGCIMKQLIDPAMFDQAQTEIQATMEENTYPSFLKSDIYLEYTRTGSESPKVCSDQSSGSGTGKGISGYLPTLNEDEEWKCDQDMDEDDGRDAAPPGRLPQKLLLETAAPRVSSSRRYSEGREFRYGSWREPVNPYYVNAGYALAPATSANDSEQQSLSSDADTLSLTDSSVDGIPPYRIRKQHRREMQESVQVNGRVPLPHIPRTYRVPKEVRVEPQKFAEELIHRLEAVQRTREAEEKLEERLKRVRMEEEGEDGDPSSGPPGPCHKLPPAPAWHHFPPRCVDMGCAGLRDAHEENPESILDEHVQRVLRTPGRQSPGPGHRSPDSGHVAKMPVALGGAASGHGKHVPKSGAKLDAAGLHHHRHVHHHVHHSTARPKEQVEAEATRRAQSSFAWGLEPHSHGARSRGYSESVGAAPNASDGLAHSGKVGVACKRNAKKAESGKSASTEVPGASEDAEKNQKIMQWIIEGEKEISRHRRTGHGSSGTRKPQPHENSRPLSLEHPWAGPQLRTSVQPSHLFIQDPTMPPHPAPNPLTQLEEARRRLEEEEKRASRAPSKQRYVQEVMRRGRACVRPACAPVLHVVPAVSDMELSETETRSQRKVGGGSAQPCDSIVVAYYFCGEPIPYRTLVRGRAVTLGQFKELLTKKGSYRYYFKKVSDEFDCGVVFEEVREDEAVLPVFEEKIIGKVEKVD

Results are given in words; binding and its absence hold for the method and conditions named. Binding seen in cells or lysates may run through a third protein. A yes stands for co-enrichment or nearness to the bait. Other partners may have been found. Sequences can lack the tags named with a protein.

Drawing on PMC8695909, this text covers binding for one substance.

As to “Axis inhibition protein 1 (Axin1) (from UniProt O15169 1-862)”, the binding result is given as “binds”.
